# Results as given in patent US20130142831A1, “COMPOUNDS FOR INFLAMMATION AND IMMUNE-RELATED USES” (Synta Pharmaceuticals Corp., priority 2004, published 2013).
# Some of these results come from one statement about several compounds together.
# System: IL-2 production
# Test: Inhibition of IL-2 production in PHA-activated Jurkat cells
# Type: cell-based, human
# Conditions: 20 hours, bins given in nM
# Description: Jurkat cells were placed in a 96 well plate (0.5 million cells per well in 1% FBS medium) then test compounds of this invention were added at different concentrations. After 10 minutes, the cells were activated with PHA (final concentration 2.5 μg/mL) and incubated for 20 hours at 37° C. under CO2. The final volume was 200 μL. Following incubation, the cells were centrifuged and the supernatants collected and stored at −70° C. prior to assaying for IL-2 production. A commercial kit (IL-2 Eli-pair, Diaclone Research, Besancon, France) was used to detect production of IL-2, from which dose response curves were obtained. The IC50 value was calculated as the concentration at which. 50% of maximum IL-2 production after stimulation was inhibited versus a non-stimulation control.
substance,measurement,value
"Isomeric mixture of N-[4-(5-Chloro-2-trifluoromethyl-benzoimidazol-1-yl)-phenyl]-N-(2,3-difluoro-benzoyl)-2,3-difluoro-benzamide & N-[4-(6-Chloro-2-trifluoromethyl-benzoimidazol-1-yl)-phenyl]-N-(2,3-difluoro-benzoyl)-2,3-difluoro-benzamide [Compound 136]",IC50,100 to 500 nM
